Drawing on PubChem BioAssay AID2685 (National Center for Advancing Translational Sciences (NCATS), 2010), this text covers cell number change and AC50 for 60 molecules.

This is one part of the list. These are further read-outs of the screen, such as a control signal, another cell line or another target. No call is given for them. The list favours compounds with an active or inconclusive main result. Words in brackets tell the shape of the fitted curve; partial curves, single points and poor fits give uncertain potencies.

Broadly, the AC50 is the concentration giving half of the maximal activity seen.

This assay is described as follows: qHTS Assay for Lipid Storage Modulators in Drosophila S3 Cells.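 As to cell number change: cells counted by Cell Tracker Red CMTPX staining in the red channel.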 Conditions: BODIPY lipid droplet fluorescence, 18-24 h; for cell number change: measured here: cell count max response, cells fed with added oleic acid. The method in brief: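 Drosophila S3 cells got compounds at several concentrations plus oleic acid (400 uM solution). Laser-scanning cytometry with 488 nm excitation read lipid droplets at 500-530 nm and cells at 575-640 nm. Percent activity was relative to 20 uM Triacsin C.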
(In qHTS, concentration-response curves come from the screen itself.)

Setting [1] is: measured here: lipid fluorescence (Fed channel) AC50, cells fed with added oleic acid.
Where [2] appears, read: measured here: cell number channel AC50, cells fed with added oleic acid.

Consider `CCc1nn(CC(=O)NCCCN2CCc3ccccc3C2)c(=O)c2cc3sccc3n12`, for which the cell number change was -0.854%.

Take `COCCNC(=O)COC(=O)c1cccnc1SC`: the cell number change worked out at 4.05%.

As for `COc1ccc(NC(=S)c2ccc(N(C)C)cc2)cc1`, the AC50 under setting [1] is 5.8 µM [rising, full curve].

Take `COc1ccc(OCC(=O)Nc2c(Cl)ccc3nsnc23)cc1`: the cell number change is -1.98%. Further, the half-maximal activity concentration (AC50) under setting [1] was 1.84 µM [rising, partial curve].

As to `CCOC(=O)c1cc2oc(C(c3nnnn3C3CCCCC3)N3CCOCC3)cc2[nH]1` (configuration not stated), the cell number change is -31.9%. Further, under setting [1], the half-maximal activity concentration (AC50) was 32.6 µM [falling, single point].

Turning to `Nc1nonc1-n1nnc(C(=O)N/N=C/c2cccc(Cl)c2)c1CSc1ccccc1`, the cell number change was 28.7%. The AC50 under setting [1] is 14.6 µM [rising, partial curve, poor fit].

For the molecule `Cn1c(=O)c2c(nc(N/N=C/c3ccco3)n2C)n(C)c1=O`, the cell number change is -17.6%. Besides, the half-maximal activity concentration (AC50) under setting [2] is 4.11 µM [falling, single point]. For the same molecule, under setting [1], the AC50 is 25.9 µM [falling, single point].

For `CCOC(=O)C1CCN(C(=O)c2ccc(S(=O)(=O)Nc3ccccc3OC)cc2)CC1`, the cell number change is -12.7%. Moreover, the AC50 under setting [1] was 0.00411 µM [rising, full curve, poor fit].

Turning to `CCN(C(=O)CSc1nc2nc(C)cc(C)n2n1)c1ccccc1`, the cell number change worked out at 19.9%. For the same molecule, under setting [1], the AC50 is 2.59 µM [rising, partial curve, poor fit].

Regarding `CCOc1ccccc1NC(=O)Nc1cc(C(=O)O)ccc1C`, the cell number change is -24%. The AC50 under setting [1] was 2.06 µM [falling, partial curve, poor fit].

Turning to `CC(SCC(=O)Nc1ccccc1)c1nc2ccccc2c(=O)[nH]1` (configuration not stated), the cell number change came to 33.5%.

For `COc1ccc(OCCCN2CCCCCC2)cc1`, the cell number change is -24.7%. The concentration at half-maximal activity (AC50) under setting [2] was 0.651 µM [falling, full curve, poor fit]. In addition, the AC50 under setting [1] is 4.11 µM [falling, full curve, poor fit].

In the case of `CC12CC3(C)CC(C)(C1)CC(NC(=O)N1CCCC1)(C2)C3`, the cell number change amounted to 7.83%. Besides, the AC50 under setting [1] was 6.51 µM [falling, single point].

For the molecule `COCC(=O)Nc1cc(C(=O)Nc2cccc(C)c2C)ccc1Cl`, the AC50 is 0.116 µM [rising, full curve] under setting [2] and 0.103 µM [rising, full curve, poor fit] under setting [1].

On to `O=C(CCC1CCCCC1)Nc1c2c(nn1-c1ccc(F)cc1)CS(=O)C2` (configuration not stated), for which the AC50 under setting [2] is 1.64 µM [rising, partial curve, poor fit].

As for `c1ccc(Oc2ccc(-n3cnnn3)cc2)cc1`, the cell number change was -93%. Also, the AC50 under setting [2] was 20.6 µM [falling, single point]. For the same molecule, the concentration at half-maximal activity (AC50) under setting [1] was 0.651 µM [falling, single point].

As to `CCC1(c2ccccc2)NC(=O)N(CC(=O)NC2CCCC2)C1=O` (configuration not stated), the cell number change is -3.37%. Further, the half-maximal activity concentration (AC50) under setting [2] was 0.092 µM [falling, full curve, poor fit].

Take `Cc1ccc(NC(=S)NC2CCN(Cc3ccccc3)CC2)cc1C`: the cell number change was 38.4%. Under setting [2], the AC50 was 32.6 µM [rising, single point].

With `Cc1ccc(NC(=S)NC2CCSc3ccccc32)cc1` (configuration not stated), the cell number change worked out at 30.2%. The AC50 under setting [2] was 32.6 µM [rising, single point].

For the molecule `CCC(C(=O)n1cccc1C#N)c1ccccc1C` (configuration not stated), under setting [2], the concentration at half-maximal activity (AC50) is 0.00517 µM [falling, full curve, poor fit].

In the case of `Cc1cc(-c2ccc(S(=O)(=O)N(C)c3ccc(C)c(C)c3)s2)on1`, the cell number change was -19.8%. Besides, under setting [1], the concentration at half-maximal activity (AC50) was 29.1 µM [falling, single point].

Regarding `CNCCCOc1ccc(C(C)(C)c2ccccc2)cc1`, the cell number change was determined as 2.32%. The AC50 under setting [1] is 1.64 µM [falling, partial curve, poor fit].

Take `CCCCCOc1ccc(CSC2=NCCN2)cc1[N+](=O)[O-]`: the cell number change was -24.4%. The AC50 under setting [1] was 0.092 µM [falling, full curve, poor fit].

Consider `COC1OC(COC(=O)c2ccccc2)C(OC(=O)c2ccccc2)C1OC(=O)c1ccccc1` (configuration not stated), for which the cell number change was 15.7%. For the same molecule, under setting [1], the half-maximal activity concentration (AC50) was 7.31 µM [rising, partial curve, poor fit].

With `CCOC(=O)c1c[nH]c2c(Cl)c(Cl)ccc2c1=O`, the cell number change was -0.804%. Further, under setting [2], the half-maximal activity concentration (AC50) was 0.58 µM [rising, partial curve, poor fit]. The AC50 under setting [1] is 6.51 µM [rising, single point].

For `Cc1n[nH]c(C)c1CCC(=O)N/N=C/c1cccc([N+](=O)[O-])c1`, under setting [1], the concentration at half-maximal activity (AC50) was 0.82 µM [rising, full curve, poor fit].

Take `Cc1ccc(CC(CC(=O)O)C(=O)NC2CCCCC2)cc1` (configuration not stated): the cell number change was 9.02%. The concentration at half-maximal activity (AC50) under setting [1] was 0.082 µM [falling, full curve].

`CCn1cc(C(=O)Nc2ccccc2)c(=O)c2ccc(C)nc21`: under setting [1], the AC50 is 0.651 µM [falling, full curve, poor fit].

`Cc1cccc(NC(=O)C2CCN(S(=O)(=O)c3cccs3)CC2)c1`: the cell number change is 0.809%. In addition, under setting [1], the AC50 was 6.51 µM [falling, single point].

As to `Cc1ccc(N(CC(=O)O)S(C)(=O)=O)cc1`, the cell number change is 19%. The AC50 under setting [2] is 0.146 µM [rising, full curve, poor fit].

As for `Cc1cccc(NC(=O)CNCC(=O)Nc2cccc(C)c2C)c1C`, the cell number change worked out at 22.1%. The AC50 under setting [1] was 11.6 µM [rising, partial curve, poor fit].

Consider `CCOc1ccc(NC(=O)CN(C)C(=O)C2(c3ccccc3)CC2)cc1OCC`, for which the cell number change is 10.6%. The concentration at half-maximal activity (AC50) under setting [1] is 0.651 µM [rising, full curve, poor fit].

In the case of `CCCc1ccc2oc(C(=O)N3CCN(CCC(N)=O)CC3)c(C)c2c1`, the cell number change is 8.29%. In addition, the AC50 under setting [1] was 0.461 µM [rising, single point].

Consider `COCCc1nc2ccc(C(=O)N(C)Cc3cccc(-n4cccn4)c3)cc2o1`, for which the cell number change came to 0.85%. In addition, the AC50 under setting [1] was 1.84 µM [rising, partial curve].

Take `CC1(C)CC(CC(=O)Nc2ccccc2[N+](=O)[O-])C(=O)O1` (configuration not stated): the cell number change is 38.9%. Besides, the AC50 under setting [2] is 0.00461 µM [rising, full curve, poor fit]. The AC50 under setting [1] was 29.1 µM [rising, single point].

Consider `Cc1ncc(CO)c2c1OC(C)(C)OC2`, for which the cell number change was -3.77%. Moreover, the AC50 under setting [1] was 0.103 µM [falling, full curve, poor fit].

`COc1cccc(Oc2ccc(C(F)(F)F)cc2NC(=O)c2cccc(F)c2)c1`: the cell number change was found to be 38%. Moreover, the AC50 under setting [2] was 20.6 µM [rising, partial curve].

Turning to `COc1ccc(Cl)cc1S(=O)(=O)N(C)CC(=O)N1CCCC1`, the cell number change was found to be 11%. Also, the AC50 under setting [1] was 29.1 µM [rising, single point].

As for `COCCCn1c(SCc2cccc(C(F)(F)F)c2)nc2cc(OC)c(OC)cc2c1=N`, the cell number change was -85.9%. For the same molecule, the AC50 under setting [2] was 18.4 µM [falling, partial curve]. The half-maximal activity concentration (AC50) under setting [1] is 10.3 µM [falling, partial curve].

On to `CCc1cc2cccc(C)c2nc1SCC(=O)Nc1nonc1C`, for which the cell number change is 16.9%. For the same molecule, the concentration at half-maximal activity (AC50) under setting [2] is 0.0259 µM [rising, full curve, poor fit].

Consider `CCOc1cc(N2CCOCC2)c(OCC)cc1NC(=O)c1ccc(C)cc1`, for which the cell number change is -24.2%. Besides, under setting [2], the AC50 was 1.16 µM [falling, full curve, poor fit]. In addition, the concentration at half-maximal activity (AC50) under setting [1] is 5.8 µM [falling, full curve, poor fit].

`COc1ccc(-c2nnc(NC(=O)c3ccccc3[N+](=O)[O-])s2)c(OC)c1`: the cell number change came out at 15%.

As for `COc1ccccc1NC(=S)NCCc1ccccc1`, the cell number change is -28.1%.

Turning to `O=S(=O)(c1ccc(S(=O)(=O)N2CCN(Cc3ccccc3)CC2)cc1)N1CCOCC1`, the cell number change is -38.6%. Also, the concentration at half-maximal activity (AC50) under setting [2] is 29.1 µM [falling, single point]. Further, the half-maximal activity concentration (AC50) under setting [1] is 29.1 µM [falling, single point].

Consider `Cc1ccc(Nc2nc(-c3c(C)nc4ncccn34)cs2)cc1`, for which the cell number change turned out to be 19.3%. The AC50 under setting [1] is 16.4 µM [rising, partial curve].

Turning to `COc1ccc(N(CC(=O)NCCc2ccc(OC)c(OC)c2)S(=O)(=O)c2ccc(OC)c(OC)c2)cc1`, the cell number change stood at 338%. In addition, the AC50 under setting [2] was 29.1 µM [rising, single point]. Further, the concentration at half-maximal activity (AC50) under setting [1] is 29.1 µM [falling, partial curve].

Consider `COc1ccc(CC(=O)N2CCc3ccccc3C2)cc1`, for which the cell number change was determined as 22.5%. Also, the half-maximal activity concentration (AC50) under setting [1] was 29.1 µM [rising, single point].

Regarding `COc1ccc(CCNC(=O)c2ccc3ccccc3n2)cc1`, the cell number change was 24.8%. Also, under setting [1], the AC50 is 1.16 µM [rising, full curve].

Take `CN1CCN(NC(=O)CN(C)S(=O)(=O)c2cc(Cl)ccc2Cl)CC1`: the cell number change is -19.3%. For the same molecule, the AC50 under setting [1] was 5.17 µM [falling, partial curve].

As for `COc1ccc(F)cc1S(=O)(=O)Nc1cc2c3c(c1)CCN3C(=O)CC2`, the AC50 under setting [1] is 2.59 µM [falling, partial curve, poor fit].

With `O=C1CC(SCCc2nc3ccccc3[nH]2)C(=O)N1c1ccc(Cl)cc1` (configuration not stated), the cell number change came out at 132%.

On to `CCC(=O)c1ccc(OCC(=O)OCC(=O)NC2CCCCCC2)cc1`, for which the cell number change was -33.3%. Further, the AC50 under setting [2] was 0.0366 µM [falling, full curve].

As for `O=C(OCC(=O)N1CCCCCC1)c1cccs1`, the cell number change is -119%. Moreover, the half-maximal activity concentration (AC50) under setting [1] was 29.1 µM [falling, single point].

In the case of `Cc1cc(=O)n(CC=C(Cl)Cl)c2ccccc12`, under setting [1], the AC50 was 6.51 µM [rising, single point].

On to `O=C(Nc1nccs1)c1ccc[nH]c1=O`, for which the cell number change was 2.64%.

Consider `CCn1ccnc1CNC(=O)CC1C(=O)NCCN1Cc1ccc(OC)cc1OC` (configuration not stated), for which the cell number change worked out at 5.9%. The AC50 under setting [1] was 20.6 µM [rising, partial curve, poor fit].

For `CCOCCCN(C(=O)Cn1nnc(-c2ccc(OC)c(OC)c2)n1)C(C(=O)NCC1CCCO1)c1ccc(F)cc1` (configuration not stated), the cell number change is 19.7%. Also, under setting [1], the concentration at half-maximal activity (AC50) is 22.4 µM [falling, single point].

For the molecule `CCOc1cc(N2CCOCC2)c(OCC)cc1NC(=O)COc1cccc2cccnc12`, the cell number change is -24.1%. Under setting [1], the AC50 was 29.1 µM [falling, single point].

On to `Cc1c(Cl)cccc1NC(=O)Nc1ccc(C(N)=O)cc1`, for which the cell number change was 41.7%. Also, under setting [2], the AC50 was 29.1 µM [rising, single point]. For the same molecule, the AC50 under setting [1] was 29.1 µM [rising, single point].

Consider `O/N=C/c1ccnc(SCc2ccc(Cl)cc2)n1`, for which the cell number change was -47.1%. The AC50 under setting [2] was 13 µM [falling, partial curve, poor fit]. The concentration at half-maximal activity (AC50) under setting [1] is 14.6 µM [falling, partial curve].
